Results are given in words; binding and its absence hold for the method and conditions named. Binding seen in cells or lysates may run through a third protein. A result given as binding can be weak or reduced; the word gives no strength. Tags and fused reporters may be left off the sequences shown.
Target: T1, DVE-1::GFP (C. elegans) (UniProt Q86MI0)
T1 sequence: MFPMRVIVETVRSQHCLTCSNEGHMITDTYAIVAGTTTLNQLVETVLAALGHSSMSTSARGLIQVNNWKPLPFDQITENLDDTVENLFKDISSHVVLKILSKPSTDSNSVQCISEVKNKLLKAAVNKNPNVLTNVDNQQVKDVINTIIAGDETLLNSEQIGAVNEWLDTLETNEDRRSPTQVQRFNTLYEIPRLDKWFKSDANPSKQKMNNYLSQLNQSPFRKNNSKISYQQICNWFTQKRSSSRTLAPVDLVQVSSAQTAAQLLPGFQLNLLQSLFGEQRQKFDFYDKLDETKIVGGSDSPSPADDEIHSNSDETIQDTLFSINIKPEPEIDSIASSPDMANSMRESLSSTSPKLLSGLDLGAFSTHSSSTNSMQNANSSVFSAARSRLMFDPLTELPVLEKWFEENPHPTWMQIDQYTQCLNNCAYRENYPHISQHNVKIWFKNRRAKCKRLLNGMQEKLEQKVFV
Test: co-IP; GFP-Trap agarose on 4 mg total lysate (RIPA buffer) of dve-1p::dve-1::gfp animals, 6 h at 4 °C, 5 washes with RIPA; blots with anti-GFP and anti-METL-9; animals with or without pathogen infection

Chains of the proteins cited; added tags and fusions are not shown. Lines headed by an entry give the natural chain unless they say otherwise; changes in a name come on top.
UniProt Q22123: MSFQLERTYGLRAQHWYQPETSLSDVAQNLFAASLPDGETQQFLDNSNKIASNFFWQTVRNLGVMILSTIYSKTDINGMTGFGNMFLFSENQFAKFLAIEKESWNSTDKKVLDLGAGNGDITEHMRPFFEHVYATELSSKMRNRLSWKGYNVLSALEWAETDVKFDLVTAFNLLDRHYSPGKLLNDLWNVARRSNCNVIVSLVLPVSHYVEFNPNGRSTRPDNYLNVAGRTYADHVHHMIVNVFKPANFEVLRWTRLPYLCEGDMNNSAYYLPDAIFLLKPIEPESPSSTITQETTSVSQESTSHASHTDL

- binding: binds
Substance: METL-9 (from UniProt Q22123) (enzyme)
